# In PubChem BioAssay AID248 (DTP/NCI, 2004):
# The list does not hold the whole screen: it is rich in T/C values a quarter to a half above the control, in often repeated tests (any T/C) and in doses without a T/C. Further doses and runs are listed elsewhere. T/C: endpoint of the treated group in % of that of the vehicle group. Some entries give survivors of the animals treated and no T/C: the source holds a T/C of zero for them, seemingly a mark for toxic or unscored doses. Some survivor counts are full or nearly so, which does not show that the dose was tolerated: survival well below the control is almost never listed, so the zero probably covers shortened survival too. Survivors were counted at the toxicity check, usually on the fifth day, unless a day is given; later deaths do not show. Schedules are NCI's codes, read here as Q, the interval in days (D) or hours (H), X, the number of doses. Some schedule codes hold Z or #, which are not explained here. Some molecules as drawn cover several salts, stereoisomers or complexes of the source; a dose is that of the sample tested. Some doses were run more than once; the results are listed from low to high. For survival time, the PubChem record calls one and a half times the control and up active, and a quarter to a half above the control has no call in these data; cut-offs in other NCI protocols can differ.
# Tested on: L1210 leukemia ip in BDF1 mice, survival T/C
# Experiment: NCI In Vivo Anticancer Drug Screen. Data for tumor model L1210 Leukemia (intraperitoneal) in B6D2F1 (BDF1) mice
# Settings: T/C endpoint: mean survival time, higher T/C = longer survival
# [1] = dose: 400.0 mg/kg/injection, schedule: Q01DX001 (ip), vehicle: saline with Tween-80
# [2] = dose: 200.0 mg/kg/injection, schedule: Q01DX001 (ip), vehicle: saline with Tween-80
# [3] = dose: 400.0 mg/kg/injection, schedule: Q04DX002 (ip), vehicle: saline with Tween-80
# [4] = dose: 400.0 mg/kg/injection, schedule: Q04DX003 (ip), vehicle: saline
# [5] = dose: 400.0 mg/kg/injection, schedule: Q01DX001 (ip), vehicle: saline
# [6] = dose: 200.0 mg/kg/injection, schedule: Q04DX003 (ip), vehicle: Klucel (hydroxypropylcellulose) (HPC)
# [7] = dose: 400.0 mg/kg/injection, schedule: Q01DX009 (ip), vehicle: Klucel (hydroxypropylcellulose) (HPC)
# [8] = dose: 400.0 mg/kg/injection, schedule: Q04DX003 (ip), vehicle: saline with Tween-80
# [9] = dose: 400.0 mg/kg/injection, schedule: Q04DX003 (ip), vehicle: Klucel (hydroxypropylcellulose) (HPC)
# [10] = dose: 100.0 mg/kg/injection, schedule: Q04DX002 (ip), vehicle: saline with Tween-80
# [11] = dose: 200.0 mg/kg/injection, schedule: Q04DX002 (ip), vehicle: saline with Tween-80
smiles,measurement,setting,value
O=C(O)c1cccc(C(=O)O)n1,survivor count,"dose: 300.0 mg/kg/injection, schedule: Q01DX001 (ip), vehicle: acetone",0 of 6
CC(C)(C)OC1C2C=CC1C1C2C(C)(C)C1(C)C (configuration not stated),survivor count,[1],6 of 6
CCN(CC)CC(C)(C)/C=N/N=C(N)N,survivor count,"dose: 120.0 mg/kg/injection, schedule: Q01DX Z (ip), vehicle: saline",6 of 6
O=C(NC(Cc1ccccc1)C(=O)CBr)OCc1ccccc1 (configuration not stated),survivor count,[2],0 of 6
same,survivor count,[1],2 of 6
CCC(CO)N=Cc1ccccc1O.CCC(CO)N=Cc1ccccc1O.[Ni] (configuration not stated),survivor count,"dose: 150.0 mg/kg/injection, schedule: Q01DX001 (ip), vehicle: other",3 of 6
same,survivor count,"dose: 300.0 mg/kg/injection, schedule: Q01DX001 (ip), vehicle: other",0 of 6
O=c1oc(Cl)c(Cl)c(Cl)c1Cl,survivor count,"dose: 3.3 mg/kg/injection, schedule: Q01DX Z (ip), vehicle: methylcellulose (MC)",6 of 6
same,survivor count,"dose: 5.0 mg/kg/injection, schedule: Q01DX Z (ip), vehicle: methylcellulose (MC)",3 of 6
CC(C)(C)OC(=O)N/N=C1\CC2CCC1C2 (configuration not stated),survivor count,"dose: 200.0 mg/kg/injection, schedule: Q04DX003 (ip), vehicle: acetone",4 of 6
same,survivor count,"dose: 400.0 mg/kg/injection, schedule: Q04DX003 (ip), vehicle: acetone",0 of 6
CN1C2CCC1CC(OC1c3ccccc3CCc3ccccc31)C2 (configuration not stated),survivor count,"dose: 100.0 mg/kg/injection, schedule: Q01DX009 (ip), vehicle: saline",0 of 6
CCCCS(=O)(=O)c1nc2ccc([N+](=O)[O-])cc2s1,survivor count,[3],1 of 3
CCN(CC)C(C)COC(=O)c1cc(=O)n(C)c2ccccc12 (configuration not stated),survivor count,[4],3 of 6
Nc1ccc(N=Nc2ccccc2)cc1,survivor count,"dose: 100.0 mg/kg/injection, schedule: Q04DX002 (ip), vehicle: Klucel (hydroxypropylcellulose) (HPC)",1 of 3
C=COCCCCCCCCCCCC(CCCCCC)OC=C (configuration not stated),survivor count,"dose: 400.0 mg/kg/injection, schedule: Q04DX002 (ip), vehicle: Klucel (hydroxypropylcellulose) (HPC)",3 of 3
Nc1cc(C(=O)O)[nH]c(=O)n1,survivor count,"dose: 200.0 mg/kg/injection, schedule: Q01DX Z (ip), vehicle: methylcellulose (MC)",6 of 6
O=NN1CCCCC1C(=O)O (configuration not stated),survivor count,[5],1 of 4
COc1cc([N+](=O)[O-])ccc1C#N,survivor count,[6],5 of 6
COc1ccccc1/C(=C/c1ccc([N+](=O)[O-])cc1)C(=O)O,survivor count,[7],3 of 3
S=C([S-])[P+](C1CCCCC1)(C1CCCCC1)C1CCCCC1,survivor count,[8],6 of 6
COc1ccc(CC2C(=O)NC(C)C(=O)N(C)C3C(=O)N(C)C(Cc4ccc(O)c(c4)Oc4ccc(cc4)C3O)C(=O)NC(C)C(=O)NC(C)C(=O)N2C)cc1 (configuration not stated) (tested in a mixture with another compound),survivor count,"dose: 4.0 mg/kg/injection, schedule: Q01DX009 (ip), vehicle: carboxymethylcellulose (CMC)",1 of 6
FC(F)(F)c1ccc(Cl)c(NC2=NCCCS2)c1,survivor count,"dose: 150.0 mg/kg/injection, schedule: Q01DX009 (ip), vehicle: saline",5 of 6
same,survivor count,"dose: 300.0 mg/kg/injection, schedule: Q01DX009 (ip), vehicle: saline",0 of 6
same,survivor count,[7],4 of 6
CC(=O)NC(CO)C(O)C(O)C(O)CO (configuration not stated),T/C,"dose: 400.0 mg/kg/injection, schedule: Q04DX002 (ip), vehicle: saline",125 % of control
CC1(C)CC[N+]1(C)Cc1ccccc1 (configuration not stated),survivor count,"dose: 50.0 mg/kg/injection, schedule: Q01DX001 (ip), vehicle: saline",0 of 6
same,survivor count,"dose: 100.0 mg/kg/injection, schedule: Q01DX001 (ip), vehicle: saline",0 of 6
same,survivor count,"dose: 200.0 mg/kg/injection, schedule: Q01DX001 (ip), vehicle: saline",0 of 6
same,survivor count,[5],0 of 6
CCC[N+](C)(C)CCCOC(=O)C1C2CC3OC(=O)C1C3C2 (configuration not stated),survivor count,[4],0 of 3
O=C(COc1ccc(Cl)cc1)Nc1cccnc1,survivor count,"dose: 100.0 mg/kg/injection, schedule: Q01DX009 (ip), vehicle: Klucel (hydroxypropylcellulose) (HPC)",2 of 6
same,survivor count,"dose: 100.0 mg/kg/injection, schedule: Q04DX003 (ip), vehicle: Klucel (hydroxypropylcellulose) (HPC)",3 of 6
same,survivor count,[6],2 of 6
same,survivor count,[9],0 of 6
CCCN(CCC)CCCOC(=O)c1ccc(N)cc1,survivor count,"dose: 150.0 mg/kg/injection, schedule: Q04DX003 (ip), vehicle: saline",3 of 6 and 6 of 6
same,survivor count,"dose: 200.0 mg/kg/injection, schedule: Q04DX003 (ip), vehicle: saline",2 of 6
O=C(O)CSC(=S)SCC(=O)O,survivor count,[7],3 of 6
N=C(N)SCc1cccc(Cl)c1,survivor count,[10],1 of 3
same,survivor count,[11],0 of 3
same,survivor count,[3],0 of 3
CC1(C)OCC(C2OC(c3ccccc3)OC(CO)C2O)O1 (configuration not stated),survivor count,"dose: 50.0 mg/kg/injection, schedule: Q04DX002 (ip), vehicle: saline with Tween-80",0 of 3
same,survivor count,[10],0 of 3
same,survivor count,[11],0 of 3
COC1=C(Br)C(=O)c2ncccc2C1=O,survivor count,"dose: 10.0 mg/kg/injection, schedule: Q01DX001 (ip), vehicle: carboxymethylcellulose (CMC)",4 of 4
same,survivor count,"dose: 40.0 mg/kg/injection, schedule: Q01DX001 (ip), vehicle: carboxymethylcellulose (CMC)",0 of 4
same,survivor count,"dose: 50.0 mg/kg/injection, schedule: Q01DX001 (ip), vehicle: carboxymethylcellulose (CMC)",1 of 4
same,survivor count,"dose: 80.0 mg/kg/injection, schedule: Q01DX001 (ip), vehicle: carboxymethylcellulose (CMC)",0 of 4
same,survivor count,"dose: 100.0 mg/kg/injection, schedule: Q01DX001 (ip), vehicle: carboxymethylcellulose (CMC)",0 of 4
same,survivor count,"dose: 200.0 mg/kg/injection, schedule: Q01DX001 (ip), vehicle: carboxymethylcellulose (CMC)",0 of 4
same,survivor count,"dose: 400.0 mg/kg/injection, schedule: Q01DX001 (ip), vehicle: carboxymethylcellulose (CMC)",0 of 4
O=C1C(=C(C(F)(F)Cl)C(F)(F)Cl)C2CCC1C2 (configuration not stated),survivor count,"dose: 100.0 mg/kg/injection, schedule: Q01DX009 (ip), vehicle: saline with Tween-80",3 of 6
same,survivor count,[2],1 of 6
same,survivor count,[1],0 of 6
[Cl][Ge]([Cl])([c]1ccccc1)[c]1ccccc1,survivor count,"dose: 200.0 mg/kg/injection, schedule: Q01DX009 (ip), vehicle: Klucel (hydroxypropylcellulose) (HPC)",5 of 6
same,survivor count,[9],1 of 6
O=C(Nc1ccc(F)cc1)c1cccc(C(=O)Nc2ccc(F)cc2)c1,survivor count,"dose: 200.0 mg/kg/injection, schedule: Q04DX003 (ip), vehicle: saline with Tween-80",6 of 6
same,survivor count,[8],6 of 6
CC(C)c1ccc2c(c1)CCC1C(C)(CN)CCCC21C (configuration not stated) (tested in a mixture with another compound),survivor count,"dose: 100.0 mg/kg/injection, schedule: Q01DX001 (ip), vehicle: saline with Tween-80",1 of 6
same,survivor count,[2],0 of 6
same,survivor count,[1],0 of 6
O=c1[nH]c2cccnc2c(=O)n1O,survivor count,"dose: 87.5 mg/kg/injection, schedule: Q04DX003 (ip), vehicle: carboxymethylcellulose (CMC)",2 of 6
